Results from article doi:10.1101/746180.
Results are given in words; binding and its absence hold for the method and conditions named. Some binding calls cover weakened binding; strength is not graded here.

By UniProt entry, the sequences of proteins in these tests, tags left out.
UniProt Q05BQ5: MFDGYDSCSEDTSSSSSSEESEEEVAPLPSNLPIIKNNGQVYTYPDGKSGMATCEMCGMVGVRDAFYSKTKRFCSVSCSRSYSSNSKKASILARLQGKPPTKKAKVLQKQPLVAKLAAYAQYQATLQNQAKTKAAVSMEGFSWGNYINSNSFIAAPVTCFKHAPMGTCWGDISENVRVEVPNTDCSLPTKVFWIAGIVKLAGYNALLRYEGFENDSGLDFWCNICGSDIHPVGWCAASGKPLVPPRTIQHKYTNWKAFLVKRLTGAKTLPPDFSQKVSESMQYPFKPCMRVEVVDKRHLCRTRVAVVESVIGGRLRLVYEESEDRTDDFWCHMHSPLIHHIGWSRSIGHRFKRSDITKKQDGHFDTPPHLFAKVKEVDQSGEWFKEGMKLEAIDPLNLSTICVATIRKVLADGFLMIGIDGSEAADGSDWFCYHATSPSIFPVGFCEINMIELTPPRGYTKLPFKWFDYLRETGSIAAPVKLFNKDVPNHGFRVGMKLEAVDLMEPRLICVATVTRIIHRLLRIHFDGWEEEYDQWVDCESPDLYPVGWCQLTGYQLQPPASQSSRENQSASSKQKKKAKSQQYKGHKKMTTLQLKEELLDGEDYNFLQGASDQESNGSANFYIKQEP

Target: His-MBTD1 (UniProt Q05BQ5)
Test: ITC

binding: binds
Binder: AKRHRKVLRDN (monomethyl-lysine at K20 (printed Kme, the sixth residue of the peptide)) [H4K20me1 peptide]
